Certain results were filed several times, with different values. They are shown here; other results are not. There may be further records. The records of an entry do not match, cause unknown; dose, time, organism, isomer or construct need not be as stated for each record.
Columns and labels:
[1] = biological target: CYP3A4 (Homo sapiens, UniProt P08684)
[2] = Toxicokinetics, 14-day study in cynomolgus monkeys; details: 300 mg/kg/day oral, Day 14
[3] = Toxicokinetics, 14-day oral gavage study in CD-1 mice; details: 25 mg/kg/day oral, 14 days
[4] = Phase 1 first-in-human study, pharmacokinetics in plasma; details: cohort B, 4 mg PO at 0 and +10 hours

Chains of the proteins cited; added tags and fusions are not shown.
UniProt P08684, whole entry: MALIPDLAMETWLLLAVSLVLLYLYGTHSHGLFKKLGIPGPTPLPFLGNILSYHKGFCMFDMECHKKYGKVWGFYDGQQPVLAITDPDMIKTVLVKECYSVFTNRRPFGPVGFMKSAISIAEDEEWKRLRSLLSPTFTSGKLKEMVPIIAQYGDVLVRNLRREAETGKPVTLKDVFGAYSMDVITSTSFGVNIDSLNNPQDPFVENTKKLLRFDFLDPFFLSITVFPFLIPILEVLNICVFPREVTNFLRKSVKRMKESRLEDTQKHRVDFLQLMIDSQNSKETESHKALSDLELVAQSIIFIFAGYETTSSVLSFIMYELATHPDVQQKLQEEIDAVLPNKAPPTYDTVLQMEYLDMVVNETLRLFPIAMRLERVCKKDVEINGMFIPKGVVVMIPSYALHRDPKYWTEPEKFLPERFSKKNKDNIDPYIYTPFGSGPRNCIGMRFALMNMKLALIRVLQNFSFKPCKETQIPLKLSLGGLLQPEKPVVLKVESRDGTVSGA

Structure (SMILES): COCCC1CC2CN3CCc4c([nH]c5ccccc45)C(C(=O)OC)(C2)C13 (racemic)
- IC50 [1]: 13 µM and > 100 µM
- 18-MC as percentage of circulating drug-related material [2]: less than 3% and < 3%
- 18-MC as percentage of circulating drug-related material [3]: less than 1% and < 1%
- Cmax, Average [4]: about 30 ng/mL and 30 ng/mL

From patent US20230201217A1 (priority 2019, published 2023)
